The target of assay [1] is endogenous PRAK of Hela cells (human (endogenous in Hela)) (UniProt Q8IW41). The assay can be described thus: co-IP; endogenous proteins, lysate of nonstimulated Hela cells; protein A/G beads coupled with anti-PRAK antibody or IgG, blotted with anti-DJ-1.
Assay [2] deals with Myc-DBD-PRAK fusion protein (p38 regulated/activated kinase fused to the Gal4 DNA binding domain, from pGBKT7-PRAK) (human) (UniProt Q8IW41). Description: two-hybrid; library screen, Matchmaker GAL4 Two-hybrid System 3; pGBKT7-PRAK in AH109 as bait, human heart cDNA library in Y187 as prey; SD/-Ade/-His/-Leu/-Trp/X-α-gal plates, 30°C, 4–6 days; β-galactosidase by colony-lift filter.

By UniProt entry, the sequences of proteins in these tests, tags left out. Where a name states a change or a piece, a line headed by the entry shows the natural chain unless it says otherwise.
UniProt Q8IW41: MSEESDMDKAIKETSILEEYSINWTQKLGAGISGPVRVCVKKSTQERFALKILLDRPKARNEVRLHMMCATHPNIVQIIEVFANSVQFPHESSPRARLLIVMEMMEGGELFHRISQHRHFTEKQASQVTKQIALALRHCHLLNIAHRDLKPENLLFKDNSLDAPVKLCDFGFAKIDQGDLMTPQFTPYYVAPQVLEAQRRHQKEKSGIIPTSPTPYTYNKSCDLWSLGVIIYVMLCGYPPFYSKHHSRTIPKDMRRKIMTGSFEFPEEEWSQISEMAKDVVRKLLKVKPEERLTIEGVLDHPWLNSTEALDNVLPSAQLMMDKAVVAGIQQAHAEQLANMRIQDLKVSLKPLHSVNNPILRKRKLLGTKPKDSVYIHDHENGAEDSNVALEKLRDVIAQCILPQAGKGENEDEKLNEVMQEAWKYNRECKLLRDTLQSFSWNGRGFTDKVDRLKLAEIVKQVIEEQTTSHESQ
UniProt Q99497: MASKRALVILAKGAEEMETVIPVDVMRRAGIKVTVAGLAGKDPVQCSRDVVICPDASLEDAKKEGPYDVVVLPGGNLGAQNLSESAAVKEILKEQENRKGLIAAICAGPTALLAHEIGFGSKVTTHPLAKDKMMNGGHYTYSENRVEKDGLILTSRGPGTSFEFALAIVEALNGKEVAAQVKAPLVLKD

Assay [3] concerns the target Flag-tagged DJ-1 (from pcDNA3-Flag-DJ-1) (human) (UniProt Q99497). The assay can be described thus: co-IP; HEK293 cells cotransfected with pcDNA3-HA-PRAK and pcDNA3-Flag-DJ-1; lysates precipitated with anti-Flag M2 beads, blotted with anti-HA.
The target in assay [4] is Myc-DBD-PRAK fusion protein (p38 regulated/activated kinase fused to the Gal4 DNA binding domain, from pGBKT7-PRAK) (human) (UniProt Q8IW41). Description: two-hybrid; mating of AH109 expressing AD-DJ-1 with Y187 expressing DBD-PRAK, 30°C, 24 hrs; SD/-Ade/-His/-Leu/-Trp/X-α-gal plates, β-galactosidase activity.

For 4 substances, binding results are on record in article PMC4212658.

No constants are given. Whether binding was seen depends on the method and setting. For some of these results: In cells and extracts the contact can be indirect. Some entries that bind do so weakly or less than the wild type.

Take “endogenous DJ-1 of Hela cells (from UniProt Q99497 1-189)”: the binding entry in assay [1] is on record as “binds”.
For the substance “clone 4 of the human heart cDNA library: DJ-1 (58-189 aa) (from UniProt Q99497 58-189) (domain or fragment)”, in assay [2], the binding result is “binds”.
Regarding “HA-PRAK (from pcDNA3-HA-PRAK) (from UniProt Q8IW41-2 1-471) (enzyme)”, the binding result in assay [3] is on record as “binds”.
For the substance “AD-DJ-1 (activation domain-fused DJ-1, from pGADT7-DJ-1) (from UniProt Q99497 1-189)”, the binding result in assay [4] is reported as “binds”.
